# In PubChem BioAssay AID493014 (National Center for Advancing Translational Sciences (NCATS), 2011):
# This is one part of the list. These are further read-outs of the screen, such as a control signal, another cell line or another target. No call is given for them. The list favours compounds with an active or inconclusive main result. Potencies come from curve fits of mixed quality, noted in brackets.
# Assay: qHTS Assay to Find Inhibitors of Chronic Active B-Cell Receptor Signaling
# Settings: ABC-DLBCL IkBa-CBG/CBR reporter, luminescence ratio (green luciferase fused to IkBa over red control in TMD8 lymphoma cells), 4 h; measured here: CBR red luminescence, cell number
# How it was run: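 Concentration-response series (up to 46 uM) were applied to TMD8 dual-reporter cells for 4 h at 37C with doxycycline. Green/red ratio, after filter-overlap correction, defined %Activity; red signal alone was normalised to basal cells and zero luminescence.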
row,Structure (SMILES),AC50
1,O=C1CC(N2CCN(Cc3ccc4c(c3)OCO4)CC2)C(=O)N1CCc1ccccc1 (configuration not stated),"0.164 µM [falling, full curve, poor fit]"
2,Cc1nnc(N2CCCC(C(=O)NCc3ccc(OC(C)C)cc3)C2)c2nn(-c3ccccc3)c(C)c12 (configuration not stated),"11.2 µM [falling, partial curve]"
3,Cc1cc2nnn(-c3nnc(-c4ccccc4)c4ccccc34)c2cc1C,"0.398 µM [rising, partial curve, poor fit]"
4,Cc1cccc(N2CCN(C(=O)c3ccc(NC(=O)C4CCCO4)cc3)CC2C)c1 (configuration not stated),"2.31 µM [rising, partial curve]"
5,CCOC(=O)c1ccc(N2C(=O)c3n[nH]c(C)c3C2c2ccc(OC)cc2OC)cc1 (configuration not stated),"0.366 µM [falling, full curve, poor fit]"
6,Cc1cccc(N/N=C(\C(N)=O)C2=NC(C)(C)Cc3ccccc32)c1,"20.6 µM [falling, single point]"
7,CCOC(=O)C1=C(N)Oc2cc(O)ccc2C1c1ccc([N+](=O)[O-])cc1 (configuration not stated),"20 µM [falling, single point]"
8,Cc1cccc(C(=O)NN/C=C/C(=O)c2ccccc2)c1,"12.6 µM [falling, partial curve]"
9,Cc1nn(-c2ccccc2)c(N2CCCC2)c1/C=N/NC(=O)c1cc(-c2ccccn2)nc2ccccc12,"29.1 µM [falling, single point]"
10,C=CCn1c(SCC(=O)N2CC(=O)Nc3ccccc32)nc2scc(-c3cccs3)c2c1=O,"1.3 µM [falling, partial curve]"
11,O=C(Nc1ccc(S(=O)(=O)N2CCN(c3ccccc3)CC2)cc1)c1cccs1,"0.206 µM [falling, full curve, poor fit]"
12,CCOC(=O)c1sc(=S)sc1SCc1cccc(C(F)(F)F)c1,"32.6 µM [rising, single point]"
13,COc1ccc(NC(=O)N(C)C[C@@H]2Oc3ccc(NC(=O)NC(C)C)cc3CC(=O)N([C@H](C)CO)C[C@@H]2C)cc1,"25.9 µM [rising, single point]"
14,COc1ccc(Cl)cc1NC(=O)Nc1ccccc1C(N)=O,"10 µM [rising, partial curve]"
15,O=[N+]([O-])c1ccc(Nc2ccc(F)cc2)nc1,"6.51 µM [rising, full curve]"
16,CN(Cc1ccccc1)C(=O)C1CCN(Cc2cc3ccccc3n2Cc2ccccc2)CC1,"35.5 µM [falling, partial curve, poor fit]"
17,CC(C)(C)N1CC(C(=O)Nc2cccc(Cl)c2Cl)CC1=O (configuration not stated),"35.5 µM [rising, partial curve, poor fit]"

# Quoted from the listing:
# Value for CC(C)(C)N1CC(C(=O)Nc2cccc(Cl)c2Cl)CC1=O (configuration not stated) under AC50: 35.5 µM [rising, partial curve, poor fit]
# Value for CCOC(=O)C1=C(N)Oc2cc(O)ccc2C1c1ccc([N+](=O)[O-])cc1 (configuration not stated) under AC50: 20 µM [falling, single point]
